smiles,measurement,value
"COc1cnc2c(c1)C(=O)c1c-2n(CCCN2CCCC2)c(=O)c2cc(Cl)ccc12 [Compound 16i, 3-Chloro-9-methoxy-6-(3-(pyrrolidin-1-yl)propyl)-5H-pyrido[3′,2′:4,5]cyclopenta[1,2-c]isoquinoline-5,11(6H)-dione]",melting point,242 to 244 °C

# — patent publication US10875860B2, “Azaindenoisoquinoline compounds and uses thereof” (Purdue Research Foundation, priority 2016, dated 2020)
